Assay results as given in patent US20250213647A1, “CHEMOKINE RECEPTORS AND ALPHA1 ADRENERGIC RECEPTORS/VASOPRESSIN RECEPTORS 1A HETEROMERS AS DRUG TARGETS FOR DISEASE” (UNIVERSITY OF SOUTH FLORIDA, priority 2022, published 2025).

Tested on: leukocyte infiltration into dorsal air pouches
Assay: Murine air pouch model, leukocyte infiltration
Type: in vivo, C57BL/6 mice
Settings: 24 hours post injection, 2.5 mg/kg LPS; for CD45 positive cells identified as granulocytes / CD45 positive cells identified as mononuclear cells: 6 μg CCL2 or 2 μg CXCL12; for infiltrated air pouch cells that expressed leukocyte common antigen (CD45): 6 μg CCL2 or 2 μg CXCL12 into the air pouch

Substance | CD45 positive cells identified as granulocytes [%] | CD45 positive cells identified as mononuclear cells [%] | infiltrated air pouch cells that expressed leukocyte common antigen (CD45) [%]
CCL2: chemokine (C-C motif) ligand 2, cognate agonist of CCR2, CCR3 and CCR5 | 21±6 | 48±3 | 82±10
CXCL12: chemokine (C-X-C motif) ligand 12, CXCR4 agonist | 19±7 | 37±3 | 83±10
